Results published in publication PMC10441460, “Identification of Selective ATP-Competitive CMG Helicase Inhibitors for Cancer Intervention that Disrupt CMG-Replisome Function” (Research Square, 2023).
Results are given in words; binding and its absence hold for the method and conditions named. For some assays here: Binding seen in cells or lysates may run through a third protein. Some binding calls cover weakened binding; strength is not graded here. For some assays here: Where a sequence is shown, tags or fusion partners need not be part of it.

The chains behind the UniProt entries cited, without tags or fusion partners.
UniProt P49736: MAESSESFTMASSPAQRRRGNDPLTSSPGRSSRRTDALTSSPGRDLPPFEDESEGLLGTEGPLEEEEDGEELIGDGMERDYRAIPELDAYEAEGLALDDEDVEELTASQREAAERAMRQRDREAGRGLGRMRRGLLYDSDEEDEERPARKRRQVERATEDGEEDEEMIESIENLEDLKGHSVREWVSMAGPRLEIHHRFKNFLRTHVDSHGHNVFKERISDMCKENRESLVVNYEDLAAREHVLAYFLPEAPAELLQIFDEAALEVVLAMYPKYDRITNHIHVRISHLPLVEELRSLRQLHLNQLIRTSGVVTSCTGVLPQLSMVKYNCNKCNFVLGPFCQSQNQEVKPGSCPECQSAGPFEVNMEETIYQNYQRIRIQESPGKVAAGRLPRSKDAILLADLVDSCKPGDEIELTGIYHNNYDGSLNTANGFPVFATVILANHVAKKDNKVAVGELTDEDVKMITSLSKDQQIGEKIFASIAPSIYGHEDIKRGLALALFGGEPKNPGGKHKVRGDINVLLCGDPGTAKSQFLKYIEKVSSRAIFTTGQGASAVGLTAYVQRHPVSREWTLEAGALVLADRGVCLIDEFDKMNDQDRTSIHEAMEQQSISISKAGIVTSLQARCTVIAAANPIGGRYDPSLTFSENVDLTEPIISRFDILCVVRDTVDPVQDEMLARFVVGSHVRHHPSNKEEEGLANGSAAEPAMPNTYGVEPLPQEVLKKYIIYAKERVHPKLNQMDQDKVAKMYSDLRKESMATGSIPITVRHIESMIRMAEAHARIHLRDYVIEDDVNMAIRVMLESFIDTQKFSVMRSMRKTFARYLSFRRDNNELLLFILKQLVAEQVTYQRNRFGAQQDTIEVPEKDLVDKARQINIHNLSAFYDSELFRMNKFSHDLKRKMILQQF
UniProt Q9BRT9: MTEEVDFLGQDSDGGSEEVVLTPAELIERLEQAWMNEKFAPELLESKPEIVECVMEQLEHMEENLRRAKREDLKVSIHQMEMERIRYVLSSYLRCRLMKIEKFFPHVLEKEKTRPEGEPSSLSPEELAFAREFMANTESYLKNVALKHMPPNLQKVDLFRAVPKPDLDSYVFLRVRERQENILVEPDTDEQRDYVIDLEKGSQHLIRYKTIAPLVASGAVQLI

B1: Ctf4 (endogenous) (protein, UniProt O75717 1-1129)
chain: MPATRKPMRYGHTEGHTEVCFDDSGSFIVTCGSDGDVRIWEDLDDDDPKFINVGEKAYSCALKSGKLVTAVSNNTIQVHTFPEGVPDGILTRFTTNANHVVFNGDGTKIAAGSSDFLVKIVDVMDSSQQKTFRGHDAPVLSLSFDPKDIFLASASCDGSVRVWQISDQTCAISWPLLQKCNDVINAKSICRLAWQPKSGKLLAIPVEKSVKLYRRESWSHQFDLSDNFISQTLNIVTWSPCGQYLAAGSINGLIIVWNVETKDCMERVKHEKGYAICGLAWHPTCGRISYTDAEGNLGLLENVCDPSGKTSSSKVSSRVEKDYNDLFDGDDMSNAGDFLNDNAVEIPSFSKGIINDDEDDEDLMMASGRPRQRSHILEDDENSVDISMLKTGSSLLKEEEEDGQEGSIHNLPLVTSQRPFYDGPMPTPRQKPFQSGSTPLHLTHRFMVWNSIGIIRCYNDEQDNAIDVEFHDTSIHHATHLSNTLNYTIADLSHEAILLACESTDELASKLHCLHFSSWDSSKEWIIDLPQNEDIEAICLGQGWAAAATSALLLRLFTIGGVQKEVFSLAGPVVSMAGHGEQLFIVYHRGTGFDGDQCLGVQLLELGKKKKQILHGDPLPLTRKSYLAWIGFSAEGTPCYVDSEGIVRMLNRGLGNTWTPICNTREHCKGKSDHYWVVGIHENPQQLRCIPCKGSRFPPTLPRPAVAILSFKLPYCQIATEKGQMEEQFWRSVIFHNHLDYLAKNGYEYEESTKNQATKEQQELLMKMLALSCKLEREFRCVELADLMTQNAVNLAIKYASRSRKLILAQKLSELAVEKAAELTATQVEEEEEEEDFRKKLNAGYSNTATEWSQPRFRNQVEEDAEDSGEADDEEKPEIHKPGQNSFSKSTNSSDVSAKSGAVTFSSQGRVNPFKVSASSKEPAMSMNSARSTNILDNMGKSSKKSTALSRTTNNEKSPIIKPLIPKPKPKQASAASYFQKRNSQTNKTEEVKEENLKNVLSETPAICPPQNTENQRPKTGFQMWLEENRSNILSDNPDFSDEADIIKEGMIRFRVLSTEERKVWANKAKGETASEGTEAKKRKRVVDESDETENQEEKAKENLNLSKKQKPLDFSTNQKLSAFAFKQE
B2: human Psf3 (recombinant hCMG subunit) (protein, UniProt Q9BRX5 1-216)
chain: MSEAYFRVESGALGPEENFLSLDDILMSHEKLPVRTETAMPRLGAFFLERSAGAETDNAVPQGSKLELPLWLAKGLFDNKRRILSVELPKIYQEGWRTVFSADPNVVDLHKMGPHFYGFGSQLLHFDSPENADISQSLLQTFIGRFRRIMDSSQNAYNEDTSALVARLDEMERGLFQTGQKGLNDFQCWEKGQASQITASNLVQNYKKRKFTDMED
B3: human Mcm3 (recombinant hCMG subunit) (protein, UniProt P25205 1-808)
chain: MAGTVVLDDVELREAQRDYLDFLDDEEDQGIYQSKVRELISDNQYRLIVNVNDLRRKNEKRANRLLNNAFEELVAFQRALKDFVASIDATYAKQYEEFYVGLEGSFGSKHVSPRTLTSCFLSCVVCVEGIVTKCSLVRPKVVRSVHYCPATKKTIERRYSDLTTLVAFPSSSVYPTKDEENNPLETEYGLSVYKDHQTITIQEMPEKAPAGQLPRSVDVILDDDLVDKAKPGDRVQVVGTYRCLPGKKGGYTSGTFRTVLIACNVKQMSKDAQPSFSAEDIAKIKKFSKTRSKDIFDQLAKSLAPSIHGHDYVKKAILCLLLGGVERDLENGSHIRGDINILLIGDPSVAKSQLLRYVLCTAPRAIPTTGRGSSGVGLTAAVTTDQETGERRLEAGAMVLADRGVVCIDEFDKMSDMDRTAIHEVMEQGRVTIAKAGIHARLNARCSVLAAANPVYGRYDQYKTPMENIGLQDSLLSRFDLLFIMLDQMDPEQDREISDHVLRMHRYRAPGEQDGDAMPLGSAVDILATDDPNFSQEDQQDTQIYEKHDNLLHGTKKKKEKMVSAAFMKKYIHVAKIIKPVLTQESATYIAEEYSRLRSQDSMSSDTARTSPVTARTLETLIRLATAHAKARMSKTVDLQDAEEAVELVQYAYFKKVLEKEKKRKKRSEDESETEDEEEKSQEDQEQKRKRRKTRQPDAKDGDSYDPYDFSDTEEEMPQVHTPKTADSQETKESQKVELSESRLKAFKVALLDVFREAHAQSIGMNRLTESINRDSEEPFSSVEIQAALSKMQDDNQVMVSEGIIFLI
B4: human Mcm5 (recombinant hCMG subunit) (protein, UniProt P33992 1-734)
chain: MSGFDDPGIFYSDSFGGDAQADEGQARKSQLQRRFKEFLRQYRVGTDRTGFTFKYRDELKRHYNLGEYWIEVEMEDLASFDEDLADYLYKQPAEHLQLLEEAAKEVADEVTRPRPSGEEVLQDIQVMLKSDASPSSIRSLKSDMMSHLVKIPGIIIAASAVRAKATRISIQCRSCRNTLTNIAMRPGLEGYALPRKCNTDQAGRPKCPLDPYFIMPDKCKCVDFQTLKLQELPDAVPHGEMPRHMQLYCDRYLCDKVVPGNRVTIMGIYSIKKFGLTTSRGRDRVGVGIRSSYIRVLGIQVDTDGSGRSFAGAVSPQEEEEFRRLAALPNVYEVISKSIAPSIFGGTDMKKAIACLLFGGSRKRLPDGLTRRGDINLLMLGDPGTAKSQLLKFVEKCSPIGVYTSGKGSSAAGLTASVMRDPSSRNFIMEGGAMVLADGGVVCIDEFDKMREDDRVAIHEAMEQQTISIAKAGITTTLNSRCSVLAAANSVFGRWDETKGEDNIDFMPTILSRFDMIFIVKDEHNEERDVMLAKHVITLHVSALTQTQAVEGEIDLAKLKKFIAYCRVKCGPRLSAEAAEKLKNRYIIMRSGARQHERDSDRRSSIPITVRQLEAIVRIAEALSKMKLQPFATEADVEEALRLFQVSTLDAALSGTLSGVEGFTSQEDQEMLSRIEKQLKRRFAIGSQVSEHSIIKDFTKQKYPEHAIHKVLQLMLRRGEIQHRMQRKVLYRLK
B5: human Mcm6 (recombinant hCMG subunit) (protein, UniProt Q14566 1-821)
chain: MDLAAAAEPGAGSQHLEVRDEVAEKCQKLFLDFLEEFQSSDGEIKYLQLAEELIRPERNTLVVSFVDLEQFNQQLSTTIQEEFYRVYPYLCRALKTFVKDRKEIPLAKDFYVAFQDLPTRHKIRELTSSRIGLLTRISGQVVRTHPVHPELVSGTFLCLDCQTVIRDVEQQFKYTQPNICRNPVCANRRRFLLDTNKSRFVDFQKVRIQETQAELPRGSIPRSLEVILRAEAVESAQAGDKCDFTGTLIVVPDVSKLSTPGARAETNSRVSGVDGYETEGIRGLRALGVRDLSYRLVFLACCVAPTNPRFGGKELRDEEQTAESIKNQMTVKEWEKVFEMSQDKNLYHNLCTSLFPTIHGNDEVKRGVLLMLFGGVPKTTGEGTSLRGDINVCIVGDPSTAKSQFLKHVEEFSPRAVYTSGKASSAAGLTAAVVRDEESHEFVIEAGALMLADNGVCCIDEFDKMDVRDQVAIHEAMEQQTISITKAGVKATLNARTSILAAANPISGHYDRSKSLKQNINLSAPIMSRFDLFFILVDECNEVTDYAIARRIVDLHSRIEESIDRVYSLDDIRRYLLFARQFKPKISKESEDFIVEQYKHLRQRDGSGVTKSSWRITVRQLESMIRLSEAMARMHCCDEVQPKHVKEAFRLLNKSIIRVETPDVNLDQEEEIQMEVDEGAGGINGHADSPAPVNGINGYNEDINQESAPKASLRLGFSEYCRISNLIVLHLRKVEEEEDESALKRSELVNWYLKEIESEIDSEEELINKKRIIEKVIHRLTHYDHVLIELTQAGLKGSTEGSESYEEDPYLVVNPNYLLED
B6: human Psf1 (recombinant hCMG subunit) (protein, UniProt Q14691 1-196)
chain: MFCEKAMELIRELHRAPEGQLPAFNEDGLRQVLEEMKALYEQNQSDVNEAKSGGRSDLIPTIKFRHCSLLRNRRCTVAYLYDRLLRIRALRWEYGSVLPNALRFHMAAEEMEWFNNYKRSLATYMRSLGGDEGLDITQDMKPPKSLYIEVRCLKDYGEFEVDDGTSVLLKKNSQHFLPRWKCEQLIRQGVLEHILS
B7: human Psf2 (recombinant hCMG subunit) (protein, UniProt Q9Y248 1-185)
chain: MDAAEVEFLAEKELVTIIPNFSLDKIYLIGGDLGPFNPGLPVEVPLWLAINLKQRQKCRLLPPEWMDVEKLEKMRDHERKEETFTPMPSPYYMELTKLLLNHASDNIPKADEIRTLVKDMWDTRIAKLRVSADSFVRQQEAHAKLDNLTLMEINTSGTFLTQALNHMYKLRTNLQPLESTQSQDF
B8: human 6His2Flag-Cdc45 (protein, UniProt O75419 1-566)
chain: MFVSDFRKEFYEVVQSQRVLLFVASDVDALCACKILQALFQCDHVQYTLVPVSGWQELETAFLEHKEQFHYFILINCGANVDLLDILQPDEDTIFFVCDTHRPVNVVNVYNDTQIKLLIKQDDDLEVPAYEDIFRDEEEDEEHSGNDSDGSEPSEKRTRLEEEIVEQTMRRRQRREWEARRRDILFDYEQYEYHGTSSAMVMFELAWMLSKDLNDMLWWAIVGLTDQWVQDKITQMKYVTDVGVLQRHVSRHNHRNEDEENTLSVDCTRISFEYDLRLVLYQHWSLHDSLCNTSYTAARFKLWSVHGQKRLQEFLADMGLPLKQVKQKFQAMDISLKENLREMIEESANKFGMKDMRVQTFSIHFGFKHKFLASDVVFATMSLMESPEKDGSGTDHFIQALDSLSRSNLDKLYHGLELAKKQLRATQQTIASCLCTNLVISQGPFLYCSLMEGTPDVMLFSRPASLSLLSKHLLKSFVCSTKNRRCKLLPLVMAAPLSMEHGTVTVVGIPPETDSSDRKNFFGRAFEKAAESTSSRMLHNHFDLSVIELKAEDRSKFLDALISLLS

Molecular target: Flag-Mcm2 (human, ectopic) (human) (UniProt P49736)
Assay: condition: only with 15 µM CA1 on the immunoprecipitated complexes for 30 min; co-IP; as a4, but the beads with the immunoprecipitated complexes were incubated with 15 µM coumermycin-A1 (CA1) for 30 min, washed, immunoblotted

binding, no binding:
B1

Molecular target: T1, human 6His2Flag-Cdc45 (human) (UniProt O75419)
T1 sequence: B8 chain
Assay: co-purification of co-expressed subunits (glutathione beads, Q-Sepharose, anti-Flag beads, glycerol gradient); 11 human CMG subunits co-expressed in High Five cells; captured by GST-Sld5 on glutathione beads (0.42 M potassium acetate), Q-Sepharose, then by 6His2Flag-Cdc45 on anti-Flag M2 beads, PreScission cleavage, 15-40% glycerol gradient; subunits checked by silver staining and immunoblotting

binding, binds:
B2
B3
B4
B5
B6
B7

Molecular target: human GST-Sld5 (human) (UniProt Q9BRT9)
Assay: as above

binding, binds:
B8
B2
B3
B4
B5
B6
B7
